The results in this text go back to PubChem BioAssay AID485318 (Broad Institute, 2010).

Amino acid sequences for entries named in this document (tags omitted). A change or cut given only in a name is not applied to a line headed by its entry.
UniProt O15379: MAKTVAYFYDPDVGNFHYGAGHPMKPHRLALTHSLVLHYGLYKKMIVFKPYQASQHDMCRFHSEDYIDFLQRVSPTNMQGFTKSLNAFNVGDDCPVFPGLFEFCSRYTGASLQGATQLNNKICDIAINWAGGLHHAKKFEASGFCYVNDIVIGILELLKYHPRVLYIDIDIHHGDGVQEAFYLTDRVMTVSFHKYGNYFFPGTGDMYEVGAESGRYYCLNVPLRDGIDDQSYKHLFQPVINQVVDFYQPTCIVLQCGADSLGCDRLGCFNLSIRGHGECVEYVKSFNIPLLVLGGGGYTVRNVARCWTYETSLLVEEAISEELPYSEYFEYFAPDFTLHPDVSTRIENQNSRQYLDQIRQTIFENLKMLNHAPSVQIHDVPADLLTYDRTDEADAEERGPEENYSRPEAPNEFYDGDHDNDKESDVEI

Molecules are shown by their SMILES. Out of some 1,400 compounds screened, fewer than 10 were called active.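 Rule for the calls: active = fluorescence-lowering compounds whose fitted half-maximal concentration is at or below ten times the highest valid dose tested; inconclusive = flat curve at 30 to 70% inhibition, or poor fit; inactive = the rest.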 This is one part of the list.

The experiment has as its target Histone deacetylase 3 (Homo sapiens) (UniProt O15379). Briefly: inhibition of human HDAC3 enzymatic activity – biochemical, fluorescence, cherry-picked samples, counter-screen for JMJD2C/GASC1 demethylase inhibitor project, dose response (AID 485318).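 Note: enzyme preincubated with compound before substrate and trypsin were added; 0% = neutral control wells and -100% = SAHA positive control wells.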 To be noted: recombinant HDAC3, fluorogenic peptide/trypsin coupled; at 12 µM (top of the series). On the technique in general: The purpose of a counterscreen is to sort out artefacts and off-target activity.
`CCN1CCN(c2ccc([N+](=O)[O-])cc2C=C2C(=O)NC(=O)NC2=O)CC1`: the activity change, negative = inhibition is inactive: 0.372%. As for `C=CCN1C(=O)NC(=O)/C(=C/c2ccoc2)C1=O`, the figure is inactive: -0.856%; as for `CN1CCN(c2nc3ccccn3c(=O)c2C=C2C(=O)N(C)C(=O)N(C)C2=O)CC1`, inactive: 0.276%; as for `Cc1ccc2nc3c(cc2c1)CC1(C(=O)N(C)C(=O)N(C)C1=O)C1CCCCN31` (stereo not given), inactive: 0.213%. The same measure for `COc1cc(Br)cc(CN2CCN(C)CC2)c1O`: inactive: -0.0342%; for `O=C1NC(=O)C(=Cc2ccc(Sc3ccccc3)o2)C(=O)N1`: inactive: 0.579%. As for `Cc1cccc(N2C(=O)NC(=O)/C(=C/c3ccc([N+](=O)[O-])o3)C2=O)c1`, the activity change, negative = inhibition was inactive: -0.172%. Consider `CCN1C(=O)NC(=O)/C(=C\c2cn(CC(=O)N3CCCCC3)c3ccccc23)C1=O`, for which the activity change, negative = inhibition was inactive: 0.455%.

On to `O=P(OCC(F)(F)C(F)F)(N1CCCCC1)N1CCCCC1`, for which the activity change, negative = inhibition was inactive: -8.65%.

As to `NCC(O)c1cc(O)c(O)cc1F` (stereo not given), the activity change, negative = inhibition is inactive: 0.348%. As for `O=C1NC(=S)N(C2CC2)C(=O)/C1=C/c1ccc2c(c1)CCN2CCCCl`, the figure is inactive: 1.19%; as for `CN1C(=O)C(Cc2ccc(OCc3ccccc3)cc2)C(=O)N(C)C1=O`, inactive: 0.665%; as for `CN1C(=O)N(C)C(=O)C2(Sc3ccccc3C2=O)C1=O`, inactive: -0.135%. The same measure for `O=C1NC(=S)NC(=O)C1C1CCCCC1`: inactive: -0.34%; for `CC(=NCc1ccc(F)cc1)c1c(O)n(C)c(=O)n(C)c1=O`: inactive: -0.161%.

As for `Cc1[nH]c2ccc(OC(F)(F)F)cc2c1CCNCc1cccc([N+](=O)[O-])c1`, the activity change, negative = inhibition is inactive: 0.899%. The same measure for `Cc1cc(C)cc(OCCOc2cccc(C=C3C(=O)NC(=O)NC3=O)c2)c1`: inactive: 0.219%; for `N/C(=N\[N+](=O)[O-])N1CCN(C(=O)c2ccccc2)CC1`: inactive: 0.341%; for `CN1C(=O)N(C)C(=O)C2(Cc3ccccc3N3CCCC32)C1=O` (stereo not given): inactive: 0.633%. As for `Cc1ccc2[nH]c(=S)n(-c3cccnc3)c(=O)c2c1`, the activity change, negative = inhibition was inactive: 1.15%.

`COCc1cc(OC(=O)N(C)C)nc2c1c(C)nn2C`: the activity change, negative = inhibition was inactive: 0.491%. With `CCN1C(=O)C(=C/C=C/c2ccco2)C(=O)N(CC)C1=S`, the activity change, negative = inhibition is inactive: -0.423%. In the case of `CN(C)c1ccc(/C=C2\C(=O)NC(=O)N(CCc3ccc(F)cc3)C2=O)cc1`, the activity change, negative = inhibition is inactive: 0.301%. The same measure for `CCN(CC)c1ccc(/C=C2\C(=O)NC(=O)N(CC3CCCO3)C2=O)cc1` (stereo not given): inactive: 0.231%; for `C[C@@H]1CCC2[C@@H](C)C(=O)O[C@@H]3OC4(C)CCC1[C@@]23OO4` (stereo not given in full): inactive: 0.176%.
